Experimental findings from paper doi:10.1101/2025.11.04.686508 are described below.

The chains behind the UniProt entries cited, without tags or fusion partners.
UniProt Q9XIE1: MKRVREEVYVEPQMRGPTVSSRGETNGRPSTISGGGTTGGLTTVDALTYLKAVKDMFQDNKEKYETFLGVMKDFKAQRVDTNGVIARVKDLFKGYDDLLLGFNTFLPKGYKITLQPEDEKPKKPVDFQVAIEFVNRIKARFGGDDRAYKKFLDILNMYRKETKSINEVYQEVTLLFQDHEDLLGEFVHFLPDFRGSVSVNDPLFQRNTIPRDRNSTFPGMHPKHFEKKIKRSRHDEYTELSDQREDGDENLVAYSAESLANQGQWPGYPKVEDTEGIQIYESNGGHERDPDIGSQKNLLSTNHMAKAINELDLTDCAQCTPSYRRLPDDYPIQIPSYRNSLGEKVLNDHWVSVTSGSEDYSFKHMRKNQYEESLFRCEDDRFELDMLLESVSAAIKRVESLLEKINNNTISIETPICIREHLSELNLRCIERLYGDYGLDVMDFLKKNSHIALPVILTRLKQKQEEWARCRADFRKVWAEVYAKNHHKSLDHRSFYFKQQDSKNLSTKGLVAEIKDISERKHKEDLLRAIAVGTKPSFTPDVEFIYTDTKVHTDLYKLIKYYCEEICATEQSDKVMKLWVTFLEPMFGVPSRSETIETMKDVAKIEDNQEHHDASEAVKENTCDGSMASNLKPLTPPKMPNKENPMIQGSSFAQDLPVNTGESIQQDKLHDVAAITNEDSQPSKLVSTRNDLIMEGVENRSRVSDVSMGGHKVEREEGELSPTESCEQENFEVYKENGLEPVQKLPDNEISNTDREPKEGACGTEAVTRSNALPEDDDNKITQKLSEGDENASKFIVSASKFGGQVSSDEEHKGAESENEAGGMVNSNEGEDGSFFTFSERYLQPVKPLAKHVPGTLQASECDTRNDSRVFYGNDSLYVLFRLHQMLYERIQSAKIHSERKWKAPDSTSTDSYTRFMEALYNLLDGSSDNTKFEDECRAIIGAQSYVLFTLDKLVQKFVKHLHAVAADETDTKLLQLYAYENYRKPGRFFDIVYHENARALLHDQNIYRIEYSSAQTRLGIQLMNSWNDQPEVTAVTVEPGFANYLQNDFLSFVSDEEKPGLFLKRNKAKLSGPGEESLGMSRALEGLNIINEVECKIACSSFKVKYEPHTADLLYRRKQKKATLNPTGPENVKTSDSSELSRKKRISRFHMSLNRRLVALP
UniProt O04539: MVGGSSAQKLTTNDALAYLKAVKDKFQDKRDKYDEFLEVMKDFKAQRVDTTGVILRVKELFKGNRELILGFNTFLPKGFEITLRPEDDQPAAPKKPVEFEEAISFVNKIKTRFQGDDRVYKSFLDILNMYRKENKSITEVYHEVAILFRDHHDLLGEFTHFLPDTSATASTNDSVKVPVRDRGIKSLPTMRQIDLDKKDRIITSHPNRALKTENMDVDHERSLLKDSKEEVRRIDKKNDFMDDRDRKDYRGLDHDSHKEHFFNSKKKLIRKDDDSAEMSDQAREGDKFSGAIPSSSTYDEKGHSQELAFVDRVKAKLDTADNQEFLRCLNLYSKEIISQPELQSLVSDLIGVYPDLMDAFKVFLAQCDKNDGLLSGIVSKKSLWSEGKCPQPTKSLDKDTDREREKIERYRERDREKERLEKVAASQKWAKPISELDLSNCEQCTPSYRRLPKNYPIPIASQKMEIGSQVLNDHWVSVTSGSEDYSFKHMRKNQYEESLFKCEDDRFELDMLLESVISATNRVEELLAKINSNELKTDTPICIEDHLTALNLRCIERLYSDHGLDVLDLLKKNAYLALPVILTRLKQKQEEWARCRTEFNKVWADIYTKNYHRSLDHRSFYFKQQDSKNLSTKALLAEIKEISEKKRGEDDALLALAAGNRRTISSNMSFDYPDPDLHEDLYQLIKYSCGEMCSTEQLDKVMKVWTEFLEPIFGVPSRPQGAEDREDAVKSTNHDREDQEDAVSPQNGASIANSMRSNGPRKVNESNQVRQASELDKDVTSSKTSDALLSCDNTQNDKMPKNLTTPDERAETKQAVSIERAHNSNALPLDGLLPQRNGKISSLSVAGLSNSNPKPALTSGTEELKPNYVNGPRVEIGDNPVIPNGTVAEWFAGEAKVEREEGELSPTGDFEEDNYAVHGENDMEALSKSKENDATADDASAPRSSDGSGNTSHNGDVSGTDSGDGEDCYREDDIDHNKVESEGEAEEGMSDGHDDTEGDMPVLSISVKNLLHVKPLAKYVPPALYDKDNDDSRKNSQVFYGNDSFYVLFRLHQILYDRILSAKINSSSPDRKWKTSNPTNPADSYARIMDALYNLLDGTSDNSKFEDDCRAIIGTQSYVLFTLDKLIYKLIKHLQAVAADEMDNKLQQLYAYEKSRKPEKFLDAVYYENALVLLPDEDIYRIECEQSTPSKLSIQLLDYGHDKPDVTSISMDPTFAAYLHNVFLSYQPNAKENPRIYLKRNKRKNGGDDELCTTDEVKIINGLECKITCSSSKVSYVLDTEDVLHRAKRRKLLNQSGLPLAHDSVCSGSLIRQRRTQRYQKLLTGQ
UniProt P41916: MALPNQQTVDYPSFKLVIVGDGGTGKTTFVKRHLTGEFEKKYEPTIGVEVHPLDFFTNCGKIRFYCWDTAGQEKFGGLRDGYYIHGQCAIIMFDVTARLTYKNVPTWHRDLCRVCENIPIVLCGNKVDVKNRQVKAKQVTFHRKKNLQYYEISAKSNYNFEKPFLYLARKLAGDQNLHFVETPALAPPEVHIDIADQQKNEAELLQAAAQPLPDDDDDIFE
UniProt Q9XIK6: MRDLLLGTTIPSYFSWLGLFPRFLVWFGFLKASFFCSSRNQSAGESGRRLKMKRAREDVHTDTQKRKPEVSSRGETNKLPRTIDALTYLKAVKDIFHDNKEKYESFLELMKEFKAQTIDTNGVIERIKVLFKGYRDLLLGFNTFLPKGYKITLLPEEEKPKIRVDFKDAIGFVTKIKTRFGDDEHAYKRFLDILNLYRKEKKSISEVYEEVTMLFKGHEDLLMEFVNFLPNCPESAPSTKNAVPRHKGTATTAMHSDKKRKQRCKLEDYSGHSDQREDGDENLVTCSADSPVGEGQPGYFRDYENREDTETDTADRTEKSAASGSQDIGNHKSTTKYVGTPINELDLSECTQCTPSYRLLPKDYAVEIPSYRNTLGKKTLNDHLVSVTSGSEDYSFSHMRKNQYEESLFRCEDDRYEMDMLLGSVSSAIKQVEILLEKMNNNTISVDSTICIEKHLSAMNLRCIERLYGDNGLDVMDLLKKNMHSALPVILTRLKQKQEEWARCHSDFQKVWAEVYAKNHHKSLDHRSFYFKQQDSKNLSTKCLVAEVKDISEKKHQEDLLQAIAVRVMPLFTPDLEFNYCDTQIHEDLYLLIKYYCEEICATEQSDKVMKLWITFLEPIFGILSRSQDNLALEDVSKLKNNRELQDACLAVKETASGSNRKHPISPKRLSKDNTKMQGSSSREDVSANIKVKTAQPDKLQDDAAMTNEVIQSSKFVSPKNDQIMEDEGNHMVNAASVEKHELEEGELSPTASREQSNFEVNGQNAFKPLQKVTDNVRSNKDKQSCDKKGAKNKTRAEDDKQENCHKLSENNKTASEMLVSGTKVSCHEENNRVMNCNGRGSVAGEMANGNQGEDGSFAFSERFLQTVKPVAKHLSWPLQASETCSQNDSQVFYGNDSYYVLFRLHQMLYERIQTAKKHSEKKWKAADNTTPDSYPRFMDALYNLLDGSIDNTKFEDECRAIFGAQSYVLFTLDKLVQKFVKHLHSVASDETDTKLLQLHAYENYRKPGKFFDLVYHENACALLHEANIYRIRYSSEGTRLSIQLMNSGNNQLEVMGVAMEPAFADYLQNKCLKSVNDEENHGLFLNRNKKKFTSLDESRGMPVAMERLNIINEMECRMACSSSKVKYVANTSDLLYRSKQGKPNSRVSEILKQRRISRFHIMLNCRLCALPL
UniProt O22467: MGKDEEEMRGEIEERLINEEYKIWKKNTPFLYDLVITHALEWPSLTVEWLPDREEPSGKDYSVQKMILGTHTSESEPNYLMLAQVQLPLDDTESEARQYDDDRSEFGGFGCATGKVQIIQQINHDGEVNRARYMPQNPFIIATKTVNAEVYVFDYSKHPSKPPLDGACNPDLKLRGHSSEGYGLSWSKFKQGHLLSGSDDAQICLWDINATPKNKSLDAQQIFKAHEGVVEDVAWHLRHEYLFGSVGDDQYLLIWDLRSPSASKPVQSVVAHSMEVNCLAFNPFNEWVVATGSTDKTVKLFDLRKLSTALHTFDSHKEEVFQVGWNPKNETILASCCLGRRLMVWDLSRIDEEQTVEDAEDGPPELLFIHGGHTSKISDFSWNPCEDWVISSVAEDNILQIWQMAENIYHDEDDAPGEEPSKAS

These are yes or no findings as the source states them, for the method shown. In cells and extracts the contact can be indirect. A yes stands for co-enrichment or nearness to the bait. Other partners may have been found. Tags and fused reporters may be left off the sequences shown.

This test has as its target T1, MycHDA19 (Myc-tagged histone deacetylase 19) (Arabidopsis thaliana) (UniProt O22446).
T1 sequence: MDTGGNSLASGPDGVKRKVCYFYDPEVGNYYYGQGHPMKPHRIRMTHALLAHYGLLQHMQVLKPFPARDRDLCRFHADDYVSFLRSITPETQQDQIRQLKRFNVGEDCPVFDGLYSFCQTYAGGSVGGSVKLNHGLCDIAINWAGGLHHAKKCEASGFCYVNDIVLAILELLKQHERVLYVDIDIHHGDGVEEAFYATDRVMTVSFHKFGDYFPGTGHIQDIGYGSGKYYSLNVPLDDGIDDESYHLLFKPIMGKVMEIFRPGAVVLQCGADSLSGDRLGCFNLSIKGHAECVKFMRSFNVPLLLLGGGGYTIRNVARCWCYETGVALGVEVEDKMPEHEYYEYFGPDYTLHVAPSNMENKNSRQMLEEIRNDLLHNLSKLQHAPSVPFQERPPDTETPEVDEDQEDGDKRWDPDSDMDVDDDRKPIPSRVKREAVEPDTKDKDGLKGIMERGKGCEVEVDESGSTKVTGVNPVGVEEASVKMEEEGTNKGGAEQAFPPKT
Briefly: affinity purification with mass spectrometry.
For the substance “SIN3-like (SNL) protein 5 (from UniProt Q9XIE1 1-1162)”, the binding result is “binds”.

With “SIN3-like (SNL) protein 4 (from UniProt O04539 1-1326)”, the binding entry is “binds”.

In the case of RPS26e, the binding result was “binds”.

With “small GTP-binding protein RAN1 (from UniProt P41916 1-221)”, the binding result is reported as “binds”.

For APOK3, the binding entry is listed as “binds”.

For the substance “SIN3-like (SNL) protein 6 (from UniProt Q9XIK6 1-1173)”, the binding entry is reported as “binds”.

For MSI1 (from UniProt O22467 1-424), the binding entry is given as “binds”.

Turning to HDIP3, the binding entry is given as “binds”.
